Test results published in doi:10.1101/2024.11.13.623339.
Results are given in words; binding and its absence hold for the method and conditions named. Binding seen in cells or lysates may run through a third protein. Some entries that bind do so weakly or less than the wild type. Sequences can lack the tags named with a protein.

T1: ATP9B, tagged at the C-terminus with HA or FLAG (UniProt O43861)
T1 sequence: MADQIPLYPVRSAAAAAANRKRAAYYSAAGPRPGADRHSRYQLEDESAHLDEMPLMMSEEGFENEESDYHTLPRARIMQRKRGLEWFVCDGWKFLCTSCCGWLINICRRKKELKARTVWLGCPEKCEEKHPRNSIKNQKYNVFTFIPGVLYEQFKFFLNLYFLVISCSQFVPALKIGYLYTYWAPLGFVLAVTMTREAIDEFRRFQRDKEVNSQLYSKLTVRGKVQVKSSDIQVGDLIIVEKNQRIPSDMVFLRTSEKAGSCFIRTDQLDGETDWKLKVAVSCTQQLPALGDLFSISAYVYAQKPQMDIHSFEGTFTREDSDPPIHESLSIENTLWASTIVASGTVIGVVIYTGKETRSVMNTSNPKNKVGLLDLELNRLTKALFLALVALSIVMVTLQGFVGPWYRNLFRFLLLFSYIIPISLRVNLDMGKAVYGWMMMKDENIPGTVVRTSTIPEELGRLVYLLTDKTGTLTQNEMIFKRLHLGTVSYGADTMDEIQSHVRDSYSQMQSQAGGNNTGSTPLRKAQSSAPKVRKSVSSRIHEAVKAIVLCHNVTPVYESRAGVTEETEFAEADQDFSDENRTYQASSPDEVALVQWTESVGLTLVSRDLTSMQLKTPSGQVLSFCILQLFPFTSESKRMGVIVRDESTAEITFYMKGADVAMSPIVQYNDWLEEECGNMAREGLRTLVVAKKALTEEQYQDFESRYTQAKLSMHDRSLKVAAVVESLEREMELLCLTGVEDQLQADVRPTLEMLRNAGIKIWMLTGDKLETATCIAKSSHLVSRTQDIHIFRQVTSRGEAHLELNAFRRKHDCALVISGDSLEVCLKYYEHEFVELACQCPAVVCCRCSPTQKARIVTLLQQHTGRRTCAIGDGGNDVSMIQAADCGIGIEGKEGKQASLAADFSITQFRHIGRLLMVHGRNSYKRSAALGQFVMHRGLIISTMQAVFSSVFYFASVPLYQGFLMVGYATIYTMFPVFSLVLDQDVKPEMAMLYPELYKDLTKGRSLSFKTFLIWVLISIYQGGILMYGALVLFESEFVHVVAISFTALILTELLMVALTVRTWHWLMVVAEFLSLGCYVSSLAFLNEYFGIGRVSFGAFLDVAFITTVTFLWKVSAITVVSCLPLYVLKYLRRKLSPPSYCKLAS

T2: ATP9A, tagged at the C-terminus with HA or FLAG (UniProt O75110)
T2 sequence: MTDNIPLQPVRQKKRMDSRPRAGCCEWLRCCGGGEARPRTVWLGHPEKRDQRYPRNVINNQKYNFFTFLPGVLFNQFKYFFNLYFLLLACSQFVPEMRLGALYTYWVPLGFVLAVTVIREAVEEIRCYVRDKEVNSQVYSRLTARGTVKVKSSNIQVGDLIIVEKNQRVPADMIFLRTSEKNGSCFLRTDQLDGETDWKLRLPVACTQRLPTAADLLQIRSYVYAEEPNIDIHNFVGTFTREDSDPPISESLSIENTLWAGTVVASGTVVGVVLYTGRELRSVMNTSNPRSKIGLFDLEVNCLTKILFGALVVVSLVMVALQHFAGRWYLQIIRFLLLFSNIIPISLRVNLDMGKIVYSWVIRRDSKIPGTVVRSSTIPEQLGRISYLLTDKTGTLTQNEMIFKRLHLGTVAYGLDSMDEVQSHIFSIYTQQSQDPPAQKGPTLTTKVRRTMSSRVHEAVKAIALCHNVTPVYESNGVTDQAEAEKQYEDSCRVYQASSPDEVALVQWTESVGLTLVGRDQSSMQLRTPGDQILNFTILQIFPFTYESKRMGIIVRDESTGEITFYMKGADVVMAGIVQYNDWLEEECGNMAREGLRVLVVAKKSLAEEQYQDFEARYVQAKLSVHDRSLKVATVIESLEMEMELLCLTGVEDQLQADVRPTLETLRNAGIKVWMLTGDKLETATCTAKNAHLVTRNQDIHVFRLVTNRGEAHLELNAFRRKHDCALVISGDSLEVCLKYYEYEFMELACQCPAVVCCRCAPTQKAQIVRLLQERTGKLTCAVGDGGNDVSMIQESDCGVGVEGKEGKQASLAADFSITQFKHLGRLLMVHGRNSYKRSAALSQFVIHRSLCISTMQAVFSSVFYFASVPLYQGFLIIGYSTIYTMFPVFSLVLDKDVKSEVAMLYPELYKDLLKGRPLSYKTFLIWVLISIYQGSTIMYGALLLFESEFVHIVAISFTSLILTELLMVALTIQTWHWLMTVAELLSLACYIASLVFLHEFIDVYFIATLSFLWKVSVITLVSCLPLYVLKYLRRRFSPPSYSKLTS

B1: ATP9A(E195Q), FLAG-tagged ATPase-deficient mutant (protein, UniProt O75110 1-1047)
chain: MTDNIPLQPVRQKKRMDSRPRAGCCEWLRCCGGGEARPRTVWLGHPEKRDQRYPRNVINNQKYNFFTFLPGVLFNQFKYFFNLYFLLLACSQFVPEMRLGALYTYWVPLGFVLAVTVIREAVEEIRCYVRDKEVNSQVYSRLTARGTVKVKSSNIQVGDLIIVEKNQRVPADMIFLRTSEKNGSCFLRTDQLDGQTDWKLRLPVACTQRLPTAADLLQIRSYVYAEEPNIDIHNFVGTFTREDSDPPISESLSIENTLWAGTVVASGTVVGVVLYTGRELRSVMNTSNPRSKIGLFDLEVNCLTKILFGALVVVSLVMVALQHFAGRWYLQIIRFLLLFSNIIPISLRVNLDMGKIVYSWVIRRDSKIPGTVVRSSTIPEQLGRISYLLTDKTGTLTQNEMIFKRLHLGTVAYGLDSMDEVQSHIFSIYTQQSQDPPAQKGPTLTTKVRRTMSSRVHEAVKAIALCHNVTPVYESNGVTDQAEAEKQYEDSCRVYQASSPDEVALVQWTESVGLTLVGRDQSSMQLRTPGDQILNFTILQIFPFTYESKRMGIIVRDESTGEITFYMKGADVVMAGIVQYNDWLEEECGNMAREGLRVLVVAKKSLAEEQYQDFEARYVQAKLSVHDRSLKVATVIESLEMEMELLCLTGVEDQLQADVRPTLETLRNAGIKVWMLTGDKLETATCTAKNAHLVTRNQDIHVFRLVTNRGEAHLELNAFRRKHDCALVISGDSLEVCLKYYEYEFMELACQCPAVVCCRCAPTQKAQIVRLLQERTGKLTCAVGDGGNDVSMIQESDCGVGVEGKEGKQASLAADFSITQFKHLGRLLMVHGRNSYKRSAALSQFVIHRSLCISTMQAVFSSVFYFASVPLYQGFLIIGYSTIYTMFPVFSLVLDKDVKSEVAMLYPELYKDLLKGRPLSYKTFLIWVLISIYQGSTIMYGALLLFESEFVHIVAISFTSLILTELLMVALTIQTWHWLMTVAELLSLACYIASLVFLHEFIDVYFIATLSFLWKVSVITLVSCLPLYVLKYLRRRFSPPSYSKLTS
B2: ATP9B(E272Q), FLAG-tagged ATPase-deficient mutant (protein, UniProt O43861 1-1147)
chain: MADQIPLYPVRSAAAAAANRKRAAYYSAAGPRPGADRHSRYQLEDESAHLDEMPLMMSEEGFENEESDYHTLPRARIMQRKRGLEWFVCDGWKFLCTSCCGWLINICRRKKELKARTVWLGCPEKCEEKHPRNSIKNQKYNVFTFIPGVLYEQFKFFLNLYFLVISCSQFVPALKIGYLYTYWAPLGFVLAVTMTREAIDEFRRFQRDKEVNSQLYSKLTVRGKVQVKSSDIQVGDLIIVEKNQRIPSDMVFLRTSEKAGSCFIRTDQLDGQTDWKLKVAVSCTQQLPALGDLFSISAYVYAQKPQMDIHSFEGTFTREDSDPPIHESLSIENTLWASTIVASGTVIGVVIYTGKETRSVMNTSNPKNKVGLLDLELNRLTKALFLALVALSIVMVTLQGFVGPWYRNLFRFLLLFSYIIPISLRVNLDMGKAVYGWMMMKDENIPGTVVRTSTIPEELGRLVYLLTDKTGTLTQNEMIFKRLHLGTVSYGADTMDEIQSHVRDSYSQMQSQAGGNNTGSTPLRKAQSSAPKVRKSVSSRIHEAVKAIVLCHNVTPVYESRAGVTEETEFAEADQDFSDENRTYQASSPDEVALVQWTESVGLTLVSRDLTSMQLKTPSGQVLSFCILQLFPFTSESKRMGVIVRDESTAEITFYMKGADVAMSPIVQYNDWLEEECGNMAREGLRTLVVAKKALTEEQYQDFESRYTQAKLSMHDRSLKVAAVVESLEREMELLCLTGVEDQLQADVRPTLEMLRNAGIKIWMLTGDKLETATCIAKSSHLVSRTQDIHIFRQVTSRGEAHLELNAFRRKHDCALVISGDSLEVCLKYYEHEFVELACQCPAVVCCRCSPTQKARIVTLLQQHTGRRTCAIGDGGNDVSMIQAADCGIGIEGKEGKQASLAADFSITQFRHIGRLLMVHGRNSYKRSAALGQFVMHRGLIISTMQAVFSSVFYFASVPLYQGFLMVGYATIYTMFPVFSLVLDQDVKPEMAMLYPELYKDLTKGRSLSFKTFLIWVLISIYQGGILMYGALVLFESEFVHVVAISFTALILTELLMVALTVRTWHWLMVVAEFLSLGCYVSSLAFLNEYFGIGRVSFGAFLDVAFITTVTFLWKVSAITVVSCLPLYVLKYLRRKLSPPSYCKLAS
B3: FLAG-tagged ATP11C (protein, UniProt Q8NB49 1-1132)
chain: MQMVPSLPPASECAGEEKRVGTRTVFVGNHPVSETEAYIAQRFCDNRIVSSKYTLWNFLPKNLFEQFRRIANFYFLIIFLVQVTVDTPTSPVTSGLPLFFVITVTAIKQGYEDCLRHRADNEVNKSTVYIIENAKRVRKESEKIKVGDVVEVQADETFPCDLILLSSCTTDGTCYVTTASLDGESNCKTHYAVRDTIALCTAESIDTLRAAIECEQPQPDLYKFVGRINIYSNSLEAVARSLGPENLLLKGATLKNTEKIYGVAVYTGMETKMALNYQGKSQKRSAVEKSINAFLIVYLFILLTKAAVCTTLKYVWQSTPYNDEPWYNQKTQKERETLKVLKMFTDFLSFMVLFNFIIPVSMYVTVEMQKFLGSFFISWDKDFYDEEINEGALVNTSDLNEELGQVDYVFTDKTGTLTENSMEFIECCIDGHKYKGVTQEVDGLSQTDGTLTYFDKVDKNREELFLRALCLCHTVEIKTNDAVDGATESAELTYISSSPDEIALVKGAKRYGFTFLGNRNGYMRVENQRKEIEEYELLHTLNFDAVRRRMSVIVKTQEGDILLFCKGADSAVFPRVQNHEIELTKVHVERNAMDGYRTLCVAFKEIAPDDYERINRQLIEAKMALQDREEKMEKVFDDIETNMNLIGATAVEDKLQDQAAETIEALHAAGLKVWVLTGDKMETAKSTCYACRLFQTNTELLELTTKTIEESERKEDRLHELLIEYRKKLLHEFPKSTRSFKKAWTEHQEYGLIIDGSTLSLILNSSQDSSSNNYKSIFLQICMKCTAVLCCRMAPLQKAQIVRMVKNLKGSPITLSIGDGANDVSMILESHVGIGIKGKEGRQAARNSDYSVPKFKHLKKLLLAHGHLYYVRIAHLVQYFFYKNLCFILPQFLYQFFCGFSQQPLYDAAYLTMYNICFTSLPILAYSLLEQHINIDTLTSDPRLYMKISGNAMLQLGPFLYWTFLAAFEGTVFFFGTYFLFQTASLEENGKVYGNWTFGTIVFTVLVFTVTLKLALDTRFWTWINHFVIWGSLAFYVFFSFFWGGIIWPFLKQQRMYFVFAQMLSSVSTWLAIILLIFISLFPEILLIVLKNVRRRSARRNLSCRRASDSLSARPSVRPLLLRTFSDESNVL

Columns and labels:
[1] = target: T1, ATP9B, tagged at the C-terminus with HA or FLAG; test: co-IP
[2] = target: T2, ATP9A, tagged at the C-terminus with HA or FLAG; test: co-IP

Binder	binding [1]	binding [2]
B1	binds	binds
B2	binds	binds
B3	no binding	no binding
